For at least one entry, the source does not settle the construct or the ends of the probe. The comparison behind a weaker result is the experiment's own reference, which may not be listed here. Protein sequences can lack the tags named with them. At least one verdict rests on a figure or table, not on a statement of the authors.
What follows are sequences tested against T1, MtrA (Streptomyces venezuelae NRRL B-65442) (UniProt A0ABZ1NSU6) (assay: SPR (ReDCaT)). Details: Biacore 8K+, HBS-EP+ buffer, 60 s contact and 60 s dissociation, pH and temperature not stated, recombinant protein, protein details: 6xHis (pETDuet MCS1).
T1 sequence (looked up, limits assumed): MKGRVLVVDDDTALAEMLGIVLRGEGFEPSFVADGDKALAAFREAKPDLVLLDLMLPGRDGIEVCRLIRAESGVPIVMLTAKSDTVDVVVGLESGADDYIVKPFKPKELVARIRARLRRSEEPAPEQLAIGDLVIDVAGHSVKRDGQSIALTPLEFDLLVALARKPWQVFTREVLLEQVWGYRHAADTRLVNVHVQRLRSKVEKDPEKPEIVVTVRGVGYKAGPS

Row | Sequence | binding result
1 | ACTCATTGCGAATCTAGCCACAGACACCGCGAAAAGGGAA / TTCCCTTTTCGCGGTGTCTGTGGCTAGATTCGCAATGAGTCCTACCCTACGTCCTCCTGC [bldM_6] | binds
2 | CCCCGCCGGTCCGGGTCGGTACACCTACTGTCTAAGTAGA / TCTACTTAGACAGTAGGTGTACCGACCCGGACCGGCGGGGCCTACCCTACGTCCTCCTGC [bldM_4] | binds
3 | CCCTCACCCCCCACCCCTCACTCCTGATCCCCGCGCGCTC / GAGCGCGCGGGGATCAGGAGTGAGGGGTGGGGGGTGAGGGCCTACCCTACGTCCTCCTGC [Binding_site_C4G] | binds more weakly
4 | CCCTCACCCCCCACCCCTCACTCGTGTTCCCCGCGCGCTC / GAGCGCGCGGGGAACACGAGTGAGGGGTGGGGGGTGAGGGCCTACCCTACGTCCTCCTGC [Binding_site_T1A] | binds more weakly
5 | GAGTTGACAGGTTCGTACACCCGAACCCATATGTTTTCAG / CTGAAAACATATGGGTTCGGGTGTACGAACCTGTCAACTCCCTACCCTACGTCCTCCTGC [adpA_4] | binds
6 | GCGCCGACGGGGCCCGCTCCTCGTGGAGTTGACAGGTTCG / CGAACCTGTCAACTCCACGAGGAGCGGGCCCCGTCGGCGCCCTACCCTACGTCCTCCTGC [adpA_3] | binds
7 | GGGGGAGAAACCGGTATCAATCGGGGCGCCGACGGGGCCC / GGGCCCCGTCGGCGCCCCGATTGATACCGGTTTCTCCCCCCCTACCCTACGTCCTCCTGC [adpA_2] | binds
8 | TACTGTCTAAGTAGATGTAAATATGACTCATTGCGAATCT / AGATTCGCAATGAGTCATATTTACATCTACTTAGACAGTACCTACCCTACGTCCTCCTGC [bldM_5] | binds
9 | TCTGTACGCGCCCCCTCACGTAGAGTGCCGAAGGGTGCCG / CGGCACCCTTCGGCACTCTACGTGAGGGGGCGCGTACAGACCTACCCTACGTCCTCCTGC [bldM_10] | binds
10 | TTGCGCTTGTCCCCTTGAAACCGTGTCGAACGGATAGGTG / CACCTATCCGTTCGACACGGTTTCAAGGGGACAAGCGCAACCTACCCTACGTCCTCCTGC [bldM_1] | binds

From PMC13189361
